Earlier results on one compound are cited in patent US20140248280A1, “ANTI-ERBB3 ANTIBODIES IN COMBINATION WITH PACLITAXEL FOR TREATMENT OF GYNECOLOGICAL CANCERS” (SANOFI, priority 2011, published 2014).

SMILES strings stand for the structures.

`CC(=O)O[C@H]1C(=O)[C@@]2(C)[C@H]([C@H](OC(=O)c3ccccc3)[C@]3(O)C[C@H](OC(=O)[C@H](O)[C@@H](NC(=O)c4ccccc4)c4ccccc4)C(C)=C1C3(C)C)[C@]1(OC(C)=O)CO[C@@H]1C[C@@H]2O` [Paclitaxel]: the solubility in water entry is listed as “insoluble in water”.
